Source: article PMC3097237, “Exploiting Nucleotide Composition to Engineer Promoters”
For at least one entry, the source does not settle the construct or the ends of the probe.

Chains of the proteins cited; added tags and fusions are not shown.
UniProt P20226, whole entry: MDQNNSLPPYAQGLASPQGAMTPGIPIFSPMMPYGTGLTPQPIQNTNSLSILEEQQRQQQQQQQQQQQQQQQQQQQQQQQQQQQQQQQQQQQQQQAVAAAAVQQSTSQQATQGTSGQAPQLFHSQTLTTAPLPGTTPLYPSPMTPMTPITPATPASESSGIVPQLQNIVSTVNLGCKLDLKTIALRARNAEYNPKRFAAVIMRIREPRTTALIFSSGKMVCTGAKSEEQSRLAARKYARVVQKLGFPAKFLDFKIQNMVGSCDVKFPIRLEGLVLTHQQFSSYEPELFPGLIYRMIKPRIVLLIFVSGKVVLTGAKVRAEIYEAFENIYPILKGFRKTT

Target: TBP (UniProt P20226)
Assay: BLI
Conditions: 285 nM TBP, highest association, no Kd (linear binding); BLI (ForteBio Octet QK), streptavidin sensors loaded with biotinylated DNA 25 ug/ml, 1x Kinetics Buffer (ForteBio); pH and temperature not stated; commercial protein; label: 5' biotin (one strand, PCR primer)

Sequence: TCGACGCGCGTATAACACGCGAGCGGTTCGAACGTTGGCGCGCTAACGCGAGTCGTACGCCCGTCAACGCGGATCAATCGCGCGACTTGTGCGCGACGTTAGACCGCCGATCGTCAAGCGCCGATCGGTAATCGGACGATTCGGATACGCGAGTTCGGACGTACGAGCGTGATACGGCGCGTAACGGTGCGCGTTAAAACGCCGACGCGTCATAACCGCGACTCGTCGACGC (double strand) [ArS232]
- binding result: binds
